# From PubChem BioAssay AID2685 (National Center for Advancing Translational Sciences (NCATS), 2010)
# The list shows a part of the results. These are further read-outs of the screen, such as a control signal, another cell line or another target. No call is given for them. The list favours compounds with an active or inconclusive main result. Potencies come from curve fits of mixed quality, noted in brackets.
# Test: qHTS Assay for Lipid Storage Modulators in Drosophila S3 Cells;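 on cell number change: cells counted by Cell Tracker Red CMTPX staining in the red channel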
# Conditions: BODIPY lipid droplet fluorescence, 18-24 h; for cell number change: measured here: cell count max response, cells fed with added oleic acid
# Summary of the method: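 Laser-scanning cytometry quantifies lipid droplet accumulation (500–530 nm total intensity; droplet/cell object ratio) in oleic acid-fed (400 uM added) Drosophila S3 cells treated with a concentration series. 20 uM Triacsin C defined 100% inhibition.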
# [1] = measured here: cell number channel AC50, cells fed with added oleic acid
# [2] = measured here: lipid fluorescence (Fed channel) AC50, cells fed with added oleic acid
smiles,measurement,setting,value
COc1ccc(CN2CCN(Cc3c[nH]c4ccccc34)CC2CCO)c(F)c1 (centres undefined),cell number change,,-32%
same,AC50,[1],"29.1 µM [falling, single point]"
same,AC50,[2],"29.1 µM [falling, partial curve, poor fit]"
CCOc1ccccc1NC(=O)NCCN1CCCCC1,cell number change,,2.47%
same,AC50,[2],"29.1 µM [rising, single point]"
C[C@H](NC(=O)c1cc2cc(Cl)ccc2n1C)C(=O)N1CCC(C(=O)O)CC1,cell number change,,20.1%
same,AC50,[2],"14.6 µM [rising, partial curve, poor fit]"
Cc1ccc(-c2nn(-c3ccc(F)cc3)cc2C(=O)NC2CCC(O)CC2)cc1 (centres undefined),cell number change,,38.4%
same,AC50,[1],"18.4 µM [rising, single point]"
O=S(=O)(NCC1CC1)c1cc(Cl)cc(Cl)c1,AC50,[1],"0.184 µM [falling, full curve]"
CCN1CCc2c(C#N)c(NCc3ccccc3)nc(NCCO)c2C1,cell number change,,-19.6%
COc1ccc2nc(NC(=O)CSc3nnc(C)s3)sc2c1,cell number change,,2.87%
same,AC50,[2],"6.51 µM [falling, single point]"
COc1cc(Nc2nc(SCC#N)nc3ccccc23)cc(OC)c1OC,cell number change,,-19.1%
same,AC50,[2],"0.259 µM [falling, full curve, poor fit]"
CCSc1ncc(C#N)c(N)n1,cell number change,,-52.4%
same,AC50,[1],"23.1 µM [falling, single point]"
COc1ccc(CCN2CC(C(=O)N3CCC(O)(c4ccccc4)CC3)CCC2=O)cc1 (centres undefined),cell number change,,-4.4%
same,AC50,[2],"2.91 µM [rising, single point]"
Cc1cc(NC(=O)c2cccc(S(=O)(=O)Nc3cccc(C(=O)O)c3)c2)no1,cell number change,,24.8%
same,AC50,[2],"0.58 µM [rising, single point]"
CN(Cc1ccccc1)C(=O)C1CCC(CNS(=O)(=O)c2cccc3cccnc23)CC1 (centres undefined),cell number change,,-7.68%
O=C(/C=C/c1cccc([N+](=O)[O-])c1)Nc1ccccc1N1CCOCC1,cell number change,,14.3%
same,AC50,[2],"7.31 µM [rising, partial curve]"
O=C(Cc1ccc(Cl)cc1)NCCS(=O)(=O)N1CCN(c2ccccc2)CC1,cell number change,,-8.46%
same,AC50,[2],"0.00461 µM [falling, full curve, poor fit]"
O=C1C(Cl)=C(N2CCN(c3ccccc3[N+](=O)[O-])CC2)C(=O)c2ccccc21,cell number change,,-45.9%
same,AC50,[1],"36.6 µM [falling, partial curve, poor fit]"
same,AC50,[2],"25.9 µM [falling, partial curve, poor fit]"
CC12CCC(C1)C(C)(C)C2NS(=O)(=O)c1ccc(F)cc1 (centres undefined),cell number change,,-35.2%
same,AC50,[1],"14.6 µM [falling, single point]"
CCCC(O)(c1ccc(OC)cc1)C(CN1CCOCC1)c1ccc(Cl)cc1 (centres undefined),cell number change,,-14.9%
CC(=O)N1CCN(C(=O)COC(=O)COc2c(C)cc(C)cc2C)CC1,cell number change,,-32.2%
same,AC50,[2],"6.51 µM [rising, single point]"
CC(=O)C1C(c2ccc(C)cc2)c2c(n[nH]c2C)CC1(C)O (centres undefined),cell number change,,-18.1%
same,AC50,[1],"0.146 µM [falling, full curve]"
same,AC50,[2],"1.46 µM [falling, partial curve]"
COc1ccc(/C=C2\SC(=O)N=C2N)cc1,cell number change,,-33.3%
same,AC50,[1],"32.6 µM [falling, single point]"
COc1ccc(NC(=O)CS(=O)(=O)c2cn(CC(=O)N3CCOCC3)c3ccccc23)cc1OC,cell number change,,-10.1%
O=C(CSc1nnc(CNC(=O)c2cccs2)o1)Nc1cccc(C(F)(F)F)c1,AC50,[1],"6.51 µM [falling, single point]"
same,AC50,[2],"6.51 µM [falling, single point]"
Cn1c(=O)oc2cc(S(=O)(=O)CCC(=O)Nc3ccccc3)ccc21,cell number change,,-0.59%
Fc1ccccc1-n1cn[nH]c1=S,AC50,[1],"0.731 µM [falling, full curve, poor fit]"
Cc1ccc(CNC(=O)[C@H](C)NC(=O)C2CCN(C(=O)[C@@H](N)CC(C)C)CC2)cc1,cell number change,,2.91%
same,AC50,[2],"29.1 µM [rising, single point]"
Cc1cccc(N(C(=O)c2csnn2)C(C(=O)NCc2ccccc2)c2ccncc2)c1 (centres undefined),cell number change,,28.4%
same,AC50,[2],"4.11 µM [rising, full curve]"
O=C1/C(=C/c2cccnc2)Oc2cc(OS(=O)(=O)c3ccc(F)cc3)ccc21,cell number change,,7.12%
same,AC50,[2],"5.17 µM [rising, single point]"
Cc1ccc(C)c(S(=O)(=O)N2CCN(C(=O)Cn3c(=O)cnc4ccccc43)CC2)c1,cell number change,,-50%
same,AC50,[1],"25.9 µM [falling, single point]"
O=C(c1ccc(Cn2c(=S)[nH]c3ccc(N4CCOCC4)cc3c2=O)cc1)N1CCC(N2CCCCC2)CC1,cell number change,,-42.8%
same,AC50,[1],"6.51 µM [falling, single point]"
same,AC50,[2],"4.11 µM [falling, partial curve, poor fit]"
CCCOC(=O)c1ccc(NC(=O)c2ccoc2C)cc1,cell number change,,-36.4%
same,AC50,[1],"29.1 µM [falling, single point]"
same,AC50,[2],"29.1 µM [falling, single point]"
Cc1ccccc1NC(=O)c1cccc(N2C(=O)C3CCC(C)CC3C2=O)c1 (centres undefined),cell number change,,-7.39%
Cc1cccc(CS(=O)(=O)c2ncc(Cl)c(C(=O)NCc3ccc4c(c3)OCO4)n2)c1,AC50,[2],"5.17 µM [falling, partial curve]"
Cc1cnc(NC(=O)CSc2c(Cl)cccc2Cl)s1,AC50,[2],"0.58 µM [rising, single point]"
Cc1ccc(/C=C/C2=Cc3c(sc(NC(=O)CSc4n[nH]c(N)n4)c3C#N)C(C)(C)C2)o1,cell number change,,-2.76%
same,AC50,[2],"9.2 µM [falling, partial curve]"
COc1ccc(C(=O)C2CCCN(C(=O)c3noc4c3CCCC4)C2)cc1F (centres undefined),cell number change,,-7.88%
same,AC50,[2],"13 µM [falling, partial curve]"
CCCCC(CC)CNC(=O)c1ccc2c(c1)OCO2 (centres undefined),cell number change,,-7.85%
same,AC50,[2],"0.517 µM [rising, full curve, poor fit]"
O=C(CCc1ccncc1)N1CCCC(Nc2ccc(F)cc2)C1 (centres undefined),cell number change,,12.6%
CC(C)C(NC(=O)c1ccccc1)C(=O)OCC(=O)N1CCN(c2ccccc2)CC1 (centres undefined),cell number change,,-21.6%
same,AC50,[2],"0.231 µM [falling, full curve]"
COc1cccc(CN(C)C(=O)c2cc(COc3ccc(-n4cncn4)cc3)on2)c1,AC50,[2],"1.3 µM [rising, partial curve]"
CCCN1CCN(C(=O)c2ccc(Sc3ccc(C)cc3)c(NC(C)=O)c2)CC1,cell number change,,-18.8%
CCC(Oc1ccc2ccccc2c1)C(=O)O (centres undefined),cell number change,,15.8%
same,AC50,[2],"0.651 µM [rising, partial curve, poor fit]"
O=C(Nc1ccc(N2CCOCC2)nc1)c1c(F)cccc1F,cell number change,,2.12%
same,AC50,[1],"6.51 µM [falling, single point]"
O=C1CSC(c2ccc(Cl)cc2)N1 (centres undefined),cell number change,,14.1%
CCNC(=O)CON=C1c2ccccc2-c2ccccc21,cell number change,,39.7%
same,AC50,[1],"10.3 µM [rising, partial curve]"
NS(=O)(=O)c1cccc2c1c([N+](=O)[O-])cc1nc(O)c(O)nc12,cell number change,,-31.5%
same,AC50,[1],"14.6 µM [falling, partial curve]"
O=[N+]([O-])c1nn(-c2ccc3c(c2)OCCO3)n(O)c1=NCc1ccc(F)cc1,cell number change,,4.93%
O=c1[nH]c2ccccc2n1CCCOc1ccccc1,cell number change,,-17.5%
same,AC50,[2],"0.651 µM [rising, full curve]"
CSC1=N/C(=C\C=C\c2cccs2)C(=O)S1,cell number change,,-122%
same,AC50,[1],"14.6 µM [falling, partial curve]"
same,AC50,[2],"14.6 µM [falling, partial curve]"
COc1ccccc1CN1CCCC(N2CCN(c3ccccc3OC)CC2)C1 (centres undefined),cell number change,,5.5%
same,AC50,[2],"29.1 µM [rising, single point]"
O=C(c1ccco1)N1CCN(C(=O)C2CC(c3ccc(Cl)cc3)=NO2)CC1 (centres undefined),cell number change,,1.37%
same,AC50,[2],"6.51 µM [rising, single point]"
COc1ccc(N2CCN(C(=O)c3cccc(S(=O)(=O)N4CCCc5ccccc54)c3)CC2)cc1,cell number change,,-9.52%
CN1CCN(S(=O)(=O)c2ccc3c(c2)C(C)(C)C(=O)N3C)CC1,cell number change,,13.8%
same,AC50,[2],"0.00517 µM [falling, full curve, poor fit]"
COC(=O)C1CCN(c2cc(=O)n(-c3ccc(OC)cc3)c(=O)[nH]2)CC1,cell number change,,-80.2%
same,AC50,[1],"29.1 µM [falling, single point]"
same,AC50,[2],"0.366 µM [falling, single point]"
COc1ccc(/C=C/C(=O)NCc2cn(C)nc2C)cc1COc1ccc(Cl)cc1Br,cell number change,,-35.9%
same,AC50,[1],"10.3 µM [falling, partial curve, poor fit]"
same,AC50,[2],"29.1 µM [falling, single point]"
COc1ccc(/C=C/C(=O)O)cc1COc1ccccc1C,cell number change,,-0.965%
same,AC50,[2],"23.1 µM [rising, partial curve]"
CC(=O)c1cccc(NC(=S)NNC(=O)c2ccc(C)c([N+](=O)[O-])c2)c1,cell number change,,123%
same,AC50,[1],"29.1 µM [rising, single point]"
O=C(COC(=O)/C=C/c1cccc([N+](=O)[O-])c1)NCC1CCCO1 (centres undefined),cell number change,,-40.3%
same,AC50,[1],"14.6 µM [falling, partial curve]"
Cc1ccc(C(=O)NC2CCCCNC2=O)cc1 (centres undefined),cell number change,,40.5%
same,AC50,[1],"2.91 µM [rising, partial curve]"
same,AC50,[2],"5.8 µM [rising, full curve]"
CCOC(=O)c1c(C)[nH]c(NC(=O)NNC(=O)c2ccc(OC)cc2)c1C,cell number change,,1.87%
same,AC50,[2],"18.4 µM [rising, partial curve, poor fit]"
CC(C)c1ccc(NC(=O)C(c2ccc3c(c2)OCO3)N2CCN(C(=O)c3ccco3)CC2)cc1 (centres undefined),cell number change,,-24.3%
same,AC50,[2],"29.1 µM [falling, single point]"
O=C(COC(=O)/C=C/c1ccc(Cl)cc1Cl)Nc1ccc2c(c1)OCCO2,cell number change,,163%

# Reformatted: results already given.
smiles	measurement	setting	value
CSC1=N/C(=C\C=C\c2cccs2)C(=O)S1	cell number change		-122%
same	AC50	[1]	14.6 µM [falling, partial curve]

# Laid out differently: results already given
smiles	measurement	setting	value
COc1ccc2nc(NC(=O)CSc3nnc(C)s3)sc2c1	AC50	[2]	6.51 µM [falling, single point]
COc1cc(Nc2nc(SCC#N)nc3ccccc23)cc(OC)c1OC	cell number change		-19.1%
